We go through 4 molecules from patent publication US20260275319A1, “ARCHAEAL PEPTIDE RECOMBINASE – A NOVEL PEPTIDE LIGATING ENZYME” (MAX-PLANCK-GESELLSCHAFT ZUR FÖRDERUNG DER WISSENSCHAFTEN …, priority 2019, published 2026).

Assay [1] concerns the target T1, methyltransferase A (MtrA) of M. mazei, endogenous protein of the whole cell extract (Methanosarcina mazei) (UniProt O59640).
T1 sequence: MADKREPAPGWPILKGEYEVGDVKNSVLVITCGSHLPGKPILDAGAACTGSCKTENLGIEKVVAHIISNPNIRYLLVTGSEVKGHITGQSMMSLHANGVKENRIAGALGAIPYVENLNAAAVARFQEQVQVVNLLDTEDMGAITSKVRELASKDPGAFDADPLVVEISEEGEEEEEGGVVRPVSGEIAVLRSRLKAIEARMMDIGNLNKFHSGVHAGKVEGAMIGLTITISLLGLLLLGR
Description: pulldown from M. mazei whole cell extract, LC-MS/MS (Experiment 2.1).

Assay [2] has as its target T1, methyltransferase A (MtrA) of M. mazei, endogenous protein of the whole cell extract (Methanosarcina mazei). Description: pulldown from M. mazei whole cell extract, LC-MS/MS (Experiment 2.2).
The target in assay [3] is T2, M. mazei MtrA^Δ219-240 with N-terminal Strep-tag (Methanosarcina mazei) (UniProt O59640).
T2 sequence: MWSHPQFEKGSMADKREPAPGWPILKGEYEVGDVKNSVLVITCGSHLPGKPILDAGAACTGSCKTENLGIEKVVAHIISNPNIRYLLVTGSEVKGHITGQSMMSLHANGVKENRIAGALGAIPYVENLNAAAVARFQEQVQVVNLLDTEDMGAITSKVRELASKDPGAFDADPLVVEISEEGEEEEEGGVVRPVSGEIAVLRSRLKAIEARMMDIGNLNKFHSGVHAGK
Description: LC-MS of Adriase incubated with MtrA over night at 4° C.

In assay [4] the target is T2, M. mazei MtrA^Δ219-240 with N-terminal Strep-tag (Methanosarcina mazei). Description: Ni-NTA bead pulldown, SDS-PAGE; LC-MS of the reaction.
Assay [5] has the same target. Description: pulldown on Ni-NTA beads with His6-tagged Adriase, SDS-PAGE of flow-through (FT), washes (W1-W4) and eluate (Elu).
Assay [6] has the same target. Description: LC-MS of the mixture, deconvoluted masses; MtrA^N-Adriase is the covalent conjugate, MtrA-Adriase the non-covalent complex.
Assay [7] shares this target. Description: Ni-NTA bead pulldown with purified proteins, SDS-PAGE.
Assay [8] has the same target. Description: isotopic dimethyl labelling and LC-MS/MS of excised gel bands.
Assay [9] addresses T1, methyltransferase A (MtrA) of M. mazei, endogenous protein of the whole cell extract (Methanosarcina mazei). Description: pulldown from M. mazei whole cell extract, LC-MS/MS (Experiment 2.3).

These are yes or no findings as the source states them, for the method shown. Binding seen in cells or lysates may run through a third protein. Some results given as binding are weak or reduced against the parent protein; the word gives no strength. Sequences can lack the tags named with a protein.

B1: M. mazei Adriase with C-terminal Strep-tag (enzyme)
chain: TLVIAFIGKNGAVMAGDMREITFEGEKPDREKLEKELYSGSIVTDEEMQKKAEEFGVKITVADCKEKVSERNGVLVGEVSSAEGGVVKKRRLYASAGNFAIAELINTEMTLTSQGKGSNFIAFGNEFTKQVANKCFKDNWTKKSNLQDAVKILILCMETVARKTASVSKQFMIVQTASNADVLKVVEKDRNCGSWSHPQFEK
As for B1, in assay [1], the binding entry is given as “binds”.

B2: M. mazei Adriase with C-terminal Myc-tag (enzyme)
chain: TLVIAFIGKNGAVMAGDMREITFEGEKPDREKLEKELYSGSIVTDEEMQKKAEEFGVKITVADCKEKVSERNGVLVGEVSSAEGGVVKKRRLYASAGNFAIAELINTEMTLTSQGKGSNFIAFGNEFTKQVANKCFKDNWTKKSNLQDAVKILILCMETVARKTASVSKQFMIVQTASNADVLKVVEKDRNCGSEQKLISEEDL
In the case of B2, the binding result in assay [2] is “binds”.

B3: M. mazei Adriase with C-terminal His-tag (enzyme)
chain: TLVIAFIGKNGAVMAGDMREITFEGEKPDREKLEKELYSGSIVTDEEMQKKAEEFGVKITVADCKEKVSERNGVLVGEVSSAEGGVVKKRRLYASAGNFAIAELINTEMTLTSQGKGSNFIAFGNEFTKQVANKCFKDNWTKKSNLQDAVKILILCMETVARKTASVSKQFMIVQTASNADVLKVVEKDRNCGSHHHHHH
Regarding B3, the binding entry in assay [3], in [4], in assay [5], in assay [6], in [7] and in assay [8] was “binds” in each case.

B4: M. mazei Adriase with C-terminal HA-tag (enzyme)
chain: TLVIAFIGKNGAVMAGDMREITFEGEKPDREKLEKELYSGSIVTDEEMQKKAEEFGVKITVADCKEKVSERNGVLVGEVSSAEGGVVKKRRLYASAGNFAIAELINTEMTLTSQGKGSNFIAFGNEFTKQVANKCFKDNWTKKSNLQDAVKILILCMETVARKTASVSKQFMIVQTASNADVLKVVEKDRNCGSYPYDVPDYA
As for B4, the binding result in assay [9] is reported as “binds”.
